Test results published in patent US20200261391A1, “METHODS OF REDUCING THE RISK OF A CARDIOVASCULAR EVENT IN A STATIN-TREATED SUBJECT BY INCREASING SERUM AND PLASMA EPA AND DPA LEVELS” (Amarin Pharmaceuticals Ireland Limited, priority 2019, published 2020).
For at least one compound, name, drawing or mass did not settle the structure.

Tested on: patients with elevated triglyceride levels on statin therapy with established cardiovascular disease or at high risk
Experiment: REDUCE-IT trial: time to first occurrence of adjudicated cardiovascular endpoint events, AMR101 4 g daily vs placebo
Format: in vivo, human
Details: adjudicated tertiary endpoint
Source text: The following study, also referred to as the REDUCE-IT clinical trial, was a large cardiovascular (CV) outcome trial designed to assess CV risk reduction benefit of AMR101 treatment (commercially known as VASCEPA®) versus placebo on the 5-point primary composite endpoint: CV death, non-fatal stroke, non-fatal myocardial infarction (MI), coronary revascularizations, or unstable angina requiring hospitalization. […]
The primary objective of this study was, in patients at LDL-C goal while on statin therapy, with established cardiovascular disease (CVD) or at high risk for CVD, and hypertriglyceridemia (e.g., fasting triglycerides(TG)≥200 mg/dL and <500 mg/dL), to evaluate the effect of AMR101 4 g daily on time from randomization to first occurrence of any component of the composite of the following major CV events: CV death; nonfatal MI; (including silent MI; electrocardiograms (ECGs) were performed annually for the detection of silent MIs); nonfatal stroke; coronary revascularization; and unstable angina determined to be caused by myocardial ischemia by invasive/non-invasive testing and requiring emergent hospitalization. […]

Structure (SMILES): CC/C=C\C/C=C\C/C=C\C/C=C\C/C=C\CCCC(=O)OCC [icosapent ethyl, eicosapentaenoic acid ethyl ester]
- Sudden Cardiac Death, n/N: 61/4089
